US20030027319A1
These are yes or no findings as the source states them, for the method shown. Some entries that bind do so weakly or less than the wild type.

Sequences of proteins named here, by UniProt entry; tags and fusion partners are left off. Residues count along the entry.
UniProt P0CG63, residues 1-76: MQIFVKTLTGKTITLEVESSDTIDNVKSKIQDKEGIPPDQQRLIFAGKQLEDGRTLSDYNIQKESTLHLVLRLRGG

B1: ubiquitin-binding monobody 212 (designed binder, not shown: large carriers)
chain: MQVSDVPRDLEVVAATPTSLLISWDAPCWRRAYYRITYGETGGNSPVQEFTVPGSKSTATISGLKPGVDYTITVYAVTGRWVGLAWSKPISINYRT
B2: ubiquitin-binding monobody 213 (designed binder, not shown: large carriers)
chain: MQVSDVPRDLEVVAATPTSLLISWDAPCKHRRYYRITYGETGGNSPVQEFTVPGSKSTATISGLKPGVDYTITVYAVTGFADLWWRSKPISINYRT
B3: ubiquitin-binding monobody 214 (designed binder, not shown: large carriers)
chain: MQVSDVPRDLEVVAATPTSLLISWDAPCRRGRYYRITYGETGGNSPVQEFTVPGSKSTATISGLKPGVDYTITVYAVTGRGFMWLSSKPISINYRT
B4: ubiquitin-binding monobody 215 (designed binder, not shown: large carriers)
chain: MQVSDVPRDLEVVAATPTSLLISWDAPCNWRRYYRITYGETGGNSPVQEFTVPGSKSTATISGLKPGVDYTITVYAVTGRAYRYRWSKPISINYRT
B5: ubiquitin-binding monobody 422 (designed binder, not shown: large carriers)
chain: MQVSDVPRDLEVVAATPTSLLISWDAPARWTLYYRITYGETGGNSPVQEFTVPGSKSTATISGLKPGVDYTITVYAVTRRWWWSKPISINYRT
B6: ubiquitin-binding monobody 424 (designed binder, not shown: large carriers)
chain: MQVSDVPRDLEVVAATPTSLLISWDAPGQRTFYYRITYGETGGNSPVQEFTVPGSKSTATISGLKPGVDYTITVYAVTRRWWASKPISINYRT
B7: ubiquitin-binding monobody 211 (designed binder, not shown: large carriers)
chain: MQVSDVPRDLEVVAATPTSLLISWDAPCARRAYYRITYGETGGNSPVQEFTVPGSKSTATISGLKPGVDYTITVYAVTGRWIPLAKSKPISINYRT

The binders below were run against Yeast ubiquitin (yeast) (UniProt P0CG63) (assay: clone from phage panning on immobilized ubiquitin; no ELISA of the single clone reported).
With B1 the binding was “binds”. B2 was tested, and the binding was “binds”. For B3, the binding was “binds”. For B4, the binding was “binds”. With B5 the binding was “binds”. With B6 the binding was “binds”. With B7 the binding was “binds”.
